# Values joined by “and” are separate entries in the source; they are usually repeats but may differ in a detail not shown here. Equal values may be shown once. The whole screen tested about 410,000 compounds, of which about 18,000 (4.4%) were called active. Inconclusive means that the source gave no clear call. Such entries were picked first, then a sample of the others. Rule as the data show it: active = activity change below about -60%; inconclusive = no clear call, values can overlap the other calls; inactive = above about -39%.
# Experiment: qHTS Assay for inhibitors of the human cytomegalovirus (HCMV)
# Settings: HFF cells, HCMV-luciferase reporter, 72 h; at 57.5 µM; stronger effect = lower value
# How it was run: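 Luciferase read-out from HCMV-luciferase-infected HFFs (MOI 1 PFU/cell) 72 h post infection at 37C; compounds added after 16 h cell attachment; activity normalized between buffer-only basal and Salinomycin (10uM) inhibitor controls.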
# % is scaled to controls: 0 for no effect and ±100 for the full control effect.
row,SMILES,"activity change, negative = inhibition"
1,COc1cccc(CN2CCCC(CNC(=O)c3ccc(F)cc3)C2)c1OC (stereo unspecified),inconclusive: -44.1%
2,CCN(Cc1ccccc1)C(=O)c1nn(-c2ccc(OC)cc2)c(=O)c2c1c1ccccc1n2C,inconclusive: -42% and inconclusive: -51.5%
3,CSc1nc2sc3c(c2c2nnnn12)CCCC3,inconclusive: -42.1%
4,Cc1nn(-c2ccc(N3CCCC3)nn2)c(C)c1CCC(=O)N1CCN(c2ccccc2)CC1,inconclusive: -42.3%
5,c1ccc(-n2cnc3cc(NCc4ccccn4)ccc32)cc1,inconclusive: -43.6%
6,CCCCC1CCC(C(=O)N(CC(C)C)c2c(N)n(CCCC)c(=O)[nH]c2=O)CC1 (stereo unspecified),inactive: -17.5%
7,Cc1ccccc1-c1nn2c(=O)cc(CN3CCN(S(=O)(=O)c4ccc(Cl)cc4)CC3)nc2s1,inactive: 26.2%
8,CCOc1ccc(N2C(=O)CC(Sc3nc4ccc(OCC)cc4s3)C2=O)cc1 (stereo unspecified),inconclusive: -50.5%
9,COC(=O)c1oc2ccccc2c1NC(=O)/C=C/C(=O)O,inconclusive: -41.9%
10,COc1ccc(CN2CCC(n3nccc3NC(=O)c3ccc4c(c3)OCO4)CC2)cc1C,inactive: -10.5%
11,CCCCN(CC)Cc1ccc(CNC(=S)Nc2c(C)cc(C)cc2C)o1,inactive: -30%
12,CCCCN(C(=O)CN1C(=O)C2CCCCC2C1=O)c1c(N)n(Cc2ccccc2)c(=O)[nH]c1=O (stereo unspecified),inconclusive: -42.2%
13,Cc1ccc(NC(=O)NC2CCCCCCC2)cc1C,active: -84.5%
14,O=C(O)c1ccc2cccnc2c1O,inactive: -32.1%
15,O=C(O)CCCCCN1C(=O)/C(=C/c2ccncc2)SC1=S,active: -77.3%
16,CCNC(=O)c1ccccc1SCc1ccccc1,inconclusive: -50.5%
17,COc1ccc(Br)cc1-c1noc(-c2ccccc2)n1,inactive: 85.8%
18,CCOC(=O)c1ccc(N2C(=O)c3n[nH]c(C)c3C2c2ccc(OCC)cc2)cc1 (stereo unspecified),active: -75.7%
19,O=c1c2ccccc2nc(-c2ccccc2)n1-c1ccccn1,active: -62.3%
20,CC(C)(C)c1ccc(C(=O)N/C(=C\c2cccs2)C(=O)N2CCOCC2)cc1,inconclusive: -56.8%
21,COc1ccccc1NC(=O)Nc1ccccc1Br,inactive: -31.3%
22,CN(C)CCCN(C(=O)c1ccc(S(=O)(=O)N(C)C2CCCCC2)cc1)c1nc2ccc(F)cc2s1,inactive: -3.19%

# A different layout for three compounds above:
row	SMILES	activity change, negative = inhibition
20	CC(C)(C)c1ccc(C(=O)N/C(=C\c2cccs2)C(=O)N2CCOCC2)cc1	inconclusive: -56.8%
21	COc1ccccc1NC(=O)Nc1ccccc1Br	inactive: -31.3%
22	CN(C)CCCN(C(=O)c1ccc(S(=O)(=O)N(C)C2CCCCC2)cc1)c1nc2ccc(F)cc2s1	inactive: -3.19%

# Later entries

row,SMILES,"activity change, negative = inhibition"
1,Cc1noc2ncnc(Sc3ccc(Cl)cc3)c12,active: -79.2%
2,CCOC(=O)c1sc2nc(C)nc(SCC(=O)N(C)C3CCS(=O)(=O)C3)c2c1C (stereo unspecified),inconclusive: -56.6%
3,O=S1(=O)CC/C(=N\Nc2ccc(F)cc2)c2ccsc21,inconclusive: -52.9%
4,O=C(Nc1ccncc1)c1ccc(F)cc1,inconclusive: -50%
5,COc1ccc(S(=O)(=O)N(Cc2cccnc2)Cc2cc3ccccc3[nH]c2=O)cc1,inconclusive: 0%
6,CCN(CC(=O)Nc1ccc(NC(C)=O)cc1)C(=O)c1ccc2c(c1)S(=O)(=O)N=C1CCCCCN12,inactive: -18.7%
7,COc1ccc(Nc2cc(C)nc3c(C)c(C)ccc23)cc1,inconclusive: -42.2%
8,CCc1ccc(C2CC(=O)c3c([nH]c(C(=O)OCCOc4ccccc4)c3C)C2)cc1 (stereo unspecified),active: -73.5%
9,CC(NC(=O)c1ccc(Cl)cc1Cl)C(c1ccccc1)N1CCOCC1 (stereo unspecified),active: -66.1%
10,O=C([C@H](Cc1ccccc1)N1C(=O)c2ccccc2C1=O)N1CCOCC1,inactive: 3.43%
11,CC(C)NC[C@@H](O)COc1ccc(CC(N)=O)cc1,inconclusive: -46.2%
12,O=C(CSc1nc2scc(-c3ccccc3)c2c(=O)[nH]1)NCCc1ccccc1,inactive: -14.6%
13,Cc1cc(C)c(NC(=O)Cn2nnc(C(=O)NCc3ccco3)c2N)c(C)c1,inconclusive: -49.7%
14,CC(C)c1ccc(C2c3c(-c4ccccc4O)n[nH]c3C(=O)N2Cc2ccncc2)cc1 (stereo unspecified),active: -78.6%
15,COc1ccc(N(CC(=O)NCc2ccc(Cl)cc2)S(=O)(=O)c2ccccc2[N+](=O)[O-])c(OC)c1,inconclusive: -52.3%
16,COc1cc(/C=C/c2c([N+](=O)[O-])c(=O)n(C)c(=O)n2C)cc(OC)c1OC,active: -67.4%
17,Cc1cccc(NC(=O)c2ccc(F)c(S(=O)(=O)N3CCC4(CC3)OCCO4)c2)c1,inactive: 26.5% and inactive: -6.65%
18,CCN(CC)C(=O)C1CCN(c2nnc(C)c3c(C)n(-c4ccc(Cl)cc4)nc23)CC1,inactive: 5.93%
19,Cc1ccc(N=CC2=C(O)CC(c3cccc(Cl)c3)CC2=O)cc1 (stereo unspecified),inconclusive: -57.8%
20,Cc1ccccc1CS(=O)(=O)CCC(=O)NCCN1CCN(c2cccc(Cl)c2)CC1,inconclusive: -45.7%
21,CCC(C(=O)NCc1ccccc1)n1c(CSCCOc2ccccc2)nc2ccccc21 (stereo unspecified),inconclusive: -43.6%
22,Cc1cc(C(=O)N/N=C/C=C/c2ccc([N+](=O)[O-])cc2)n[nH]1,inconclusive: -53.5%

row,SMILES,"activity change, negative = inhibition"
1,COc1cc(OC)cc(C(=O)Nc2ccc3nc(Nc4cccc(C(F)(F)F)c4)cc(C)c3c2)c1,active: -92.6%
2,Cc1ccc(S(=O)(=O)N(CC(=O)N/N=C\c2cccs2)c2cccc3cccnc23)cc1,active: -62.6%
3,CN(Cc1cccnc1)C(=O)c1ccc2nc(Cc3ccccc3F)oc2c1,inactive: -38.3%
4,O=c1c2ccccc2nc(-c2ccc(Cl)c(Cl)c2)n1O,active: -62.9%
5,COc1ccccc1N1CCN(C(=O)CSc2n[nH]c(-c3ccccc3Cl)n2)CC1,inactive: 0.0499%
6,COc1ccc(/C=N/Nc2nc(Nc3ccccc3)nc(N3CCCC3)n2)cc1,inactive: -0.132%
7,CC1CCCCN1CCNC(=O)c1ccc2c(c1)N(Cc1ccccc1F)C(=O)c1ccccc1S2=O (stereo unspecified),inconclusive: -42.9%
8,Clc1ccccc1CN1CCN(/N=C/c2ccncc2)CC1,inconclusive: -46%
9,Cc1cc(Cl)c(S(=O)(=O)N2CCCC2)cc1OCC(N)=O,inconclusive: -43.7%
10,CCC1CN(C(=O)Nc2ccc(Br)cc2F)c2ccccc2S1 (stereo unspecified),inconclusive: 0%
11,Cc1ccc(C(=O)NNC(=O)c2ccccc2OCc2c(C)noc2C)cc1,inactive: 2.49%
12,CC(O)(c1ccccc1)c1nc(-c2cccc(C#N)c2)cs1 (stereo unspecified),inconclusive: -48.7%
13,COC(=O)C(NC(=O)CCc1c(C)nc2c(c(C)nn2-c2ccccc2)c1C)C(C)C (stereo unspecified),inactive: -4.98% and inactive: 6.94%
14,CNS(=O)(=O)c1cn(CC(=O)N(C)Cc2ccccc2)cc1S(=O)(=O)NC,inconclusive: -44.5%
15,O=C1CSc2ccc(C(=O)O)cc2N1,inactive: 5.7%
16,Cc1[nH]c2ccccc2c1C1(O)C(=O)N(Cc2ccccc2Cl)c2ccccc21 (stereo unspecified),inconclusive: -49%
17,COc1ccc(CN2CCC2(C)C(=O)Nc2ccc(OC)c(OC)c2)cc1 (stereo unspecified),inconclusive: -53.4%
18,COc1ccc(OC)c(NC(=O)CSc2nnc(Cc3cccn3C)n2-c2ccc(F)cc2)c1,inactive: 32.3%
19,Cc1ccc(C)c(N2CCN(C(=O)C3CCCN(Cc4nc(-c5cccc(Cl)c5)oc4C)C3)CC2)c1 (stereo unspecified),inactive: -0.378%
20,O=C(N/N=C/c1cccnc1)c1ccc2ccccc2c1O,inconclusive: -53.6%
21,O=C(Nc1ccc(Br)cc1)C1CCN(C(=O)c2ccc(F)cc2)CC1,inconclusive: -40%
22,O=C(c1cccc(OC2CCN(Cc3ccc(F)cc3)CC2)c1)N1CCCC1,inactive: -23.9%

row,SMILES,"activity change, negative = inhibition"
1,Cc1onc(-c2ccccc2Cl)c1C(=O)Nc1ccc(N2CCOCC2)cc1,inactive: -13.5%
2,O=C(C1CCCN(S(=O)(=O)c2cccc3nsnc23)C1)N1CC=C(c2ccccc2)CC1 (stereo unspecified),active: -61.4%
3,N#Cc1cc2c(nc1SCc1ccc(Cl)nc1)CCCCC2,inconclusive: -49.3%
4,O=C(Nc1ccc2c(c1)C(=O)NC2=O)c1ccccc1,inconclusive: -48.7%
5,Cc1nc2ccccn2c1C(=O)N=Nc1c(O)[nH]c2ccccc12,inactive: 51%
6,Cc1cccc2sc(NNC(=O)c3ccc(S(=O)(=O)N4CCCC(C)C4)cc3)nc12 (stereo unspecified),active: -71.7%
7,Cc1cc(-c2ccc(C)c(S(=O)(=O)NCC3CCN(Cc4ccc(F)cc4)CC3)c2)on1,inconclusive: -44.9%
8,Cc1ccc(-c2nn(-c3cccc(F)c3)cc2CN(Cc2nccn2C)C(C)C)o1,inconclusive: -41.9%
9,Fc1cccc(Cl)c1Cn1c(-c2cccs2)nc2ccccc21,active: -63.4%
10,COc1ccc(CNC(=O)c2sc(=O)n(Cc3cc(C(C)=O)ccc3OC)c2C)cc1,inactive: -7.09%
11,COc1ccc(-n2c(C)cc(C(=O)COC(=O)Cn3cnc4ccccc43)c2C)cc1,inconclusive: -56.1%
12,CCSC1=NCCN1S(=O)(=O)c1ccc2ccccc2c1,inconclusive: -52.5%
13,N#C/C(=C/c1cccc(C(F)(F)F)c1)c1nc(CCN2C(=O)c3ccccc3C2=O)cs1,inactive: 8.05%
14,CC1(C)N=C(N)N=C(N)N1CCCCc1ccccc1,active: -98.4%
15,Cc1cc(C)cc(NC(=O)CCCn2c3ccccc3c(=O)c3ccccc32)c1,active: -77.4%
16,CN(Cc1ccccc1)CC(O)COc1ccc(CNCc2ccc(Cl)s2)cc1 (stereo unspecified),inconclusive: -47.5%
17,c1nnnn1C12CC3CC(CC(C3)C1)C2,active: -63.7%
18,CC(=O)c1ccc(N2CCN(C(=O)CCCCn3c(=O)[nH]c4ccccc4c3=O)CC2)cc1,inactive: 8.8%
19,COc1ccc(Cl)cc1CNCCSc1nnnn1C,inconclusive: -47.7%
20,CCOc1ccc(CNC(=O)c2cc(=O)[nH]c3ccc(S(=O)(=O)N4CCCC4)cc23)cc1,inconclusive: -48.5%

# Reference: PubChem BioAssay AID1259415 (National Center for Advancing Translational Sciences (NCATS), 2018)
